The supplement of paper PMC12889115
The list shows a part of the results. These are raw signals, not scaled to a control.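 First-pass screen: polymyxin B was added at a level that permeabilizes the Salmonella outer membrane while sparing the inner membrane. DMSO wells, with and without polymyxin B, defined maximum growth. Because plates differed from one another, each plate's data were ranked separately and the compounds with the lowest OD600 were carried forward as hits.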

System: Salmonella enterica serovar Typhimurium SL1344
Assay: bacterial growth OD600 after 18 h with compound and polymyxin B; higher = more bacterial growth (less inhibition)
Details: 50 µM, Mueller-Hinton broth

## CCOC(=O)N1CCN(C(=O)c2ccc(N3CCC(NCc4ccc(F)cc4)CC3)cc2)CC1
Polymyxin B 0.75 µg/mL
  bacterial growth OD600: 0.703

## COC(=O)c1ccc(CN2CCOc3ccc(C(O)Cc4ccccc4)cc3C2)cc1 (configuration not stated)
Polymyxin B 0.75 µg/mL
  bacterial growth OD600: 0.09

## CC(=O)c1cccc(OCc2cc(C(=O)NCc3ccc4c(c3)OCO4)n[nH]2)c1
Polymyxin B 1 µg/mL
  bacterial growth OD600: 0.869

## COC(=O)C1CCCCN1Cc1ccc2c(c1)CN(C(=O)COc1ccccc1OC)CCO2 (configuration not stated)
Polymyxin B 0.75 µg/mL
  bacterial growth OD600: 0.988

## CC(C)c1cc(CNC(=O)c2ccc(OC3CCN(C(=O)C4CC4)CC3)cc2)on1
Polymyxin B 1 µg/mL
  bacterial growth OD600: 0.758

## O=C(CC(F)(F)F)N1CCc2onc(-c3cccc4ccccc34)c2C1
Polymyxin B 0.75 µg/mL
  bacterial growth OD600: 0.356

## NC(=O)[C@@H]1CCCN1c1ccc(-c2nc(Cc3ccc(F)cc3)no2)cn1
Polymyxin B 0.75 µg/mL
  bacterial growth OD600: 0.785

## COCc1ccc(C(=O)Nc2ccc(-c3nc(CNC(=O)C(C)N4CCOCC4)c(C)o3)cc2)o1 (configuration not stated)
Polymyxin B 0.75 µg/mL
  bacterial growth OD600: 1.01

## COc1cccc(CCNC2CCN(c3ccc(NC(=O)Cc4cccc(F)c4)cc3)CC2)c1
Polymyxin B 0.75 µg/mL
  bacterial growth OD600: 0.843

## COc1cc(CN(Cc2ccncc2)C(=O)c2ccc(-c3ccccc3)cc2)ccc1OC1Cc2ccccc2C1
Polymyxin B 0.75 µg/mL
  bacterial growth OD600: 0.84

## Cc1nn(C)cc1CN(C)c1ccc(C(=O)NCCC2CCCCN2C)cn1 (configuration not stated)
Polymyxin B 1 µg/mL
  bacterial growth OD600: 1

## Cc1cc(C)n(-c2ccc(NC(=O)C3CCCCN3CC3CC3)cc2)n1 (configuration not stated)
Polymyxin B 1 µg/mL
  bacterial growth OD600: 1.15

## O=C(NC1(c2ccccc2)CC1)c1cc(COc2ccc(F)c(F)c2)on1
Polymyxin B 1 µg/mL
  bacterial growth OD600: 0.003

## CSc1ccccc1C(=O)NCc1c(C)ncc2c1CCN(C(=O)C13CC4CC(CC(C4)C1)C3)C2
Polymyxin B 0.75 µg/mL
  bacterial growth OD600: 0.84

## CCC(=O)N1CCCC(Nc2ccc(F)cc2)C1 (configuration not stated)
Polymyxin B 1 µg/mL
  bacterial growth OD600: 1.03

## Cc1occc1C(=O)N(C)C(Cc1ccccc1F)C1CCN(C(=O)/C=C/c2cccc(F)c2)CC1 (configuration not stated)
Polymyxin B 0.75 µg/mL
  bacterial growth OD600: 0.012

## Cc1ccccc1CCC1CCCN(C(=O)Cn2cccn2)C1 (configuration not stated)
Polymyxin B 0.75 µg/mL
  bacterial growth OD600: 0.729

## COCC(=O)N1CCC(Oc2ccc(C(=O)NC(C)c3nccs3)cc2)CC1 (configuration not stated)
Polymyxin B 1 µg/mL
  bacterial growth OD600: 0.846

## COc1cc(CN2CCCC(CNC(=O)c3ccc(F)cc3)C2)cc(Cl)c1O (configuration not stated)
Polymyxin B 0.75 µg/mL
  bacterial growth OD600: 0.795

## O=C(C1CC12CCCC2)N1CCc2onc(-c3cccc(F)c3)c2C1 (configuration not stated)
Polymyxin B 0.75 µg/mL
  bacterial growth OD600: 0.001

## CN(C(=O)CC(c1cccc(O)c1)c1cccc(Cl)c1)C1CCOCC1 (configuration not stated)
Polymyxin B 1 µg/mL
  bacterial growth OD600: 0.588

## CCOc1ccc(CNC2CCCc3nc(-c4cccnc4)ncc32)cc1 (configuration not stated)
Polymyxin B 1 µg/mL
  bacterial growth OD600: 0.858

## Cc1ncccc1C(=O)N1CCCC(C(=O)c2ccc(-c3ccccc3)cc2)C1 (configuration not stated)
Polymyxin B 1 µg/mL
  bacterial growth OD600: 0.009

## Cc1ccc(Oc2ncccc2CNCc2ccccn2)c(F)c1F
Polymyxin B 0.75 µg/mL
  bacterial growth OD600: 0.537

## COc1ccc(CCN2CC(C(=O)NCCCn3nc(C)cc3C)CCC2=O)cc1 (configuration not stated)
Polymyxin B 1 µg/mL
  bacterial growth OD600: 0.799

## CCn1c(-c2ccccc2F)nc2cc(C(=O)NC(C)c3cn(C)nc3C)cc(NC(C)=O)c21 (configuration not stated)
Polymyxin B 0.75 µg/mL
  bacterial growth OD600: 0.901

## Cc1ccccc1-c1nc(CN(Cc2c(C)nn(C)c2C)C2CC2)c(C)o1
Polymyxin B 1 µg/mL
  bacterial growth OD600: 0.669

## COc1cc(-c2nc(CN3CCCCC3CCNC(C)=O)c(C)o2)ccc1F (configuration not stated)
Polymyxin B 0.75 µg/mL
  bacterial growth OD600: 0.623

## Cc1nccn1-c1ccc(NC(=O)C2CCCN2C(=O)C(C)(C)C)cc1 (configuration not stated)
Polymyxin B 1 µg/mL
  bacterial growth OD600: 1.02

## COc1cc(CC2(CCC(=O)N3CCN(c4cccc(C)n4)CC3)CCC(=O)N2)ccc1F (configuration not stated)
Polymyxin B 0.75 µg/mL
  bacterial growth OD600: 0.971

## O=C(NCC1CCCN(C(=O)C2CCC2)C1)c1ccc(F)cc1 (configuration not stated)
Polymyxin B 1 µg/mL
  bacterial growth OD600: 0.919

## C=C(C)CN(CC)C(=O)c1cc(COc2cc(C)c(Cl)c(C)c2)on1
Polymyxin B 0.75 µg/mL
  bacterial growth OD600: -0.001
